Test results from article doi:10.1101/2021.10.26.465926.
Like-named read-outs stand apart in the source and are kept apart here. These are yes or no findings as the source states them, for the method shown. Binding seen in cells or lysates may run through a third protein. Some binding calls cover weakened binding; strength is not graded here.

Amino acid sequences for entries named in this document (tags omitted). Residues count along the entry.
UniProt P19491, residues 22-883: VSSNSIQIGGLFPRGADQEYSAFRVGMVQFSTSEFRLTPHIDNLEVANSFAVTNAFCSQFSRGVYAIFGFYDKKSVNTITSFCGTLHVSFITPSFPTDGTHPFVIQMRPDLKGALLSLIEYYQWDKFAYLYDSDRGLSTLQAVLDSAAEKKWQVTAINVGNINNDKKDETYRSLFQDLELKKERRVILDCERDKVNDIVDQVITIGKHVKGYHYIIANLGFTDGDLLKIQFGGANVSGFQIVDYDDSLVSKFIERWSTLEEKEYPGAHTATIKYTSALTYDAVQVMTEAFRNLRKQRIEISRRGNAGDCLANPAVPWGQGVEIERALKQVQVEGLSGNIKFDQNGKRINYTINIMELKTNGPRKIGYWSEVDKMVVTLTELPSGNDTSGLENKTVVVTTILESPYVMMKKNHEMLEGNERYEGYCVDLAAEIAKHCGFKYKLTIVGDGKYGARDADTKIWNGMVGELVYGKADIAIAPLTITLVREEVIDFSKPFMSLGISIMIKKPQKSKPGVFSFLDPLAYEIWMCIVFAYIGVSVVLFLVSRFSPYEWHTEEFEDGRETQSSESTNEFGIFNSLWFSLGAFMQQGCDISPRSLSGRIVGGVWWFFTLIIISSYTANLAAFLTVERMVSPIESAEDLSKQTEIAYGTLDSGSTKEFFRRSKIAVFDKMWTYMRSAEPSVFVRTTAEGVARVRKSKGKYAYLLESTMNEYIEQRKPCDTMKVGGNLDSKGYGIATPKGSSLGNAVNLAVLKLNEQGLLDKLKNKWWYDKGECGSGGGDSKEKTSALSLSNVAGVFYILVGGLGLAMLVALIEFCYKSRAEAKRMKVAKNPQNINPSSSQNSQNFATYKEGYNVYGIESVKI
UniProt Q5SXA9: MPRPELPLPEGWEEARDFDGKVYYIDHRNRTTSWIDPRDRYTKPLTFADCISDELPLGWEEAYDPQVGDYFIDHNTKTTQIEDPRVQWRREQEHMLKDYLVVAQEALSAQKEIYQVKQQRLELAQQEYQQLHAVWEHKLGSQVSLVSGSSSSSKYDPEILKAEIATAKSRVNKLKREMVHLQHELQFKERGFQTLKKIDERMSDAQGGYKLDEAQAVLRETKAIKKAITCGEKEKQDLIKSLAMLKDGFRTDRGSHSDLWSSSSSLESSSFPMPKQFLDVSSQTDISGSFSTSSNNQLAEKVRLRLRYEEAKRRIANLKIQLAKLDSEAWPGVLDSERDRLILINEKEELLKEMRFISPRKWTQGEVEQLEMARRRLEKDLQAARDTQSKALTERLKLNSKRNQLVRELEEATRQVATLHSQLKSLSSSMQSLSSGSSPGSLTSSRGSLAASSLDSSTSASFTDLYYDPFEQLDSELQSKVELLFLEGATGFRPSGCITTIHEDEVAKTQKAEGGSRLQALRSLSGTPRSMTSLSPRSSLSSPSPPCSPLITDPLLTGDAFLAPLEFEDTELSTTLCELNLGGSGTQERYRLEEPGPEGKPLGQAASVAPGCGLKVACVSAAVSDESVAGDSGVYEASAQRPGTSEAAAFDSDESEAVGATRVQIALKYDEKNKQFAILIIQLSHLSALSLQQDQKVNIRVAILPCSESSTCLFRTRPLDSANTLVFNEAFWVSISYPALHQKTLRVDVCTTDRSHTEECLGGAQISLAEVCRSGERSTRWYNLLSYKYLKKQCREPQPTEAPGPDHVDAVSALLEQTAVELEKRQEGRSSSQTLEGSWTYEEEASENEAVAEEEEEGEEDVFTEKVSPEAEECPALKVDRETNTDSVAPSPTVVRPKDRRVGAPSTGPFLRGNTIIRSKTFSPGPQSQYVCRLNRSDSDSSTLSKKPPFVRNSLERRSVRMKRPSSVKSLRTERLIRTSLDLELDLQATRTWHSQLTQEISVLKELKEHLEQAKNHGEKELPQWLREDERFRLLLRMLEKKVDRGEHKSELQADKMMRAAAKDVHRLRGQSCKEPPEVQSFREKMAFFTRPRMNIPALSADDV
UniProt P23819, residues 25-883: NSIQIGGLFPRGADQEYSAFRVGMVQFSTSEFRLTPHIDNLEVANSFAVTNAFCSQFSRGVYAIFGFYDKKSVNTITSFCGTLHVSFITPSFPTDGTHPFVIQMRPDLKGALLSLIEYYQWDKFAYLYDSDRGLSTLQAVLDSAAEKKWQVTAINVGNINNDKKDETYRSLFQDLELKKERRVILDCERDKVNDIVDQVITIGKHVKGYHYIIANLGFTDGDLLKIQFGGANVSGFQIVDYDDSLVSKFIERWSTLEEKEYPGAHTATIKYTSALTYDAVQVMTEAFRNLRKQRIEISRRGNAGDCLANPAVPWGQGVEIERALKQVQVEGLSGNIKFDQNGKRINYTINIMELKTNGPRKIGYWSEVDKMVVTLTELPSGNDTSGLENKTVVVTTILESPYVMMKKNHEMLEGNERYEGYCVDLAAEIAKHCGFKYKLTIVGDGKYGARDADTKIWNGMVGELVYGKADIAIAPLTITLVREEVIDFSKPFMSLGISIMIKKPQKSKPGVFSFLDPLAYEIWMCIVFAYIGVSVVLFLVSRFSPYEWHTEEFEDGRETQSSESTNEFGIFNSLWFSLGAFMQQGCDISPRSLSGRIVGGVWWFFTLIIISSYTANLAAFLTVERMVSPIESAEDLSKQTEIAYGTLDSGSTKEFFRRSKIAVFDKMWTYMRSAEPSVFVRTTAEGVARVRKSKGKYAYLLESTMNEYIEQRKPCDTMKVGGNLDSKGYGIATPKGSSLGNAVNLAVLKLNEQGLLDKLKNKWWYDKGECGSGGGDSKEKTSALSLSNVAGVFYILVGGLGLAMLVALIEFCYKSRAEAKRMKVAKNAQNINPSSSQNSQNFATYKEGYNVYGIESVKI

Key:
Assay in all cases: co-IP
[1] = biological target: AMPAR GluA2 subunit (cDNA expressed in HEK293T cells) (UniProt P19491)
[2] = biological target: KIBRA (cDNA expressed in HEK293T cells) (UniProt Q5SXA9)
[3] = biological target: AMPAR GluA2 subunit (cDNA expressed in HEK293T cells) (UniProt P19491); remark: listed apart in the source
[4] = biological target: KIBRA, endogenous in mouse forebrain (mouse (endogenous in mouse forebrain)) (UniProt Q5SXA9)
[5] = biological target: AMPAR GluA2 subunit, endogenous in mouse forebrain (mouse (endogenous in mouse forebrain)) (UniProt P23819)

| binding [1] | binding [2] | binding [3] | binding [4] | binding [5] | Substance |
| --- | --- | --- | --- | --- | --- |
| binds | binds | binds | – | – | PKCγ (cDNA expressed in HEK293T cells) (from UniProt P63318 1-697) (enzyme) |
| binds | – | – | – | – | KIBRA (cDNA expressed in HEK293T cells) (from UniProt Q5SXA9 1-1104) |
| – | – | – | binds | binds | PKCγ, endogenous in mouse forebrain (from UniProt P63318 1-697) (enzyme) |
